Assay results taken from US8007800B2, “Methods for treating bone cancer pain by administering a nerve growth factor antagonist antibody” (Pfizer Inc., priority 2004, dated 2011).

Tested on: athymic nude mice injected with osteoblastic canine carcinoma ACE-1 cells into the femur
Assay: Example 3: murine prostate (ACE-1) model of bone cancer pain, pain behaviors
Format: in vivo, mouse

## CN1CC[C@]23c4c5ccc(O)c4O[C@H]2[C@@H](O)C=C[C@H]3[C@H]1C5.O=S(=O)(O)O [morphine sulfate]
Acute 10 mg/kg morphine sulfate 15 min prior to testing, day 11
  ongoing guarding (time guarding of the injected limb): 3.5 ± 0.3 s
Acute 10 mg/kg morphine sulfate 15 min prior to testing, day 19
  ongoing guarding (time guarding of the injected limb): 4.0 ± 0.5 s
Acute 10 mg/kg morphine sulfate, day 11
  ongoing flinching (number of flinches of the injected limb): 5.6±0.5
Acute 10 mg/kg morphine sulfate, day 19
  ongoing flinching (number of flinches of the injected limb): 6.8±0.7
Acute 30 mg/kg morphine sulfate 15 min prior to testing, day 11
  ongoing guarding (time guarding of the injected limb): 2.2 ± 0.3 s
Acute 30 mg/kg morphine sulfate 15 min prior to testing, day 19
  ongoing guarding (time guarding of the injected limb): 2.0 ± 0.4 s
Acute 30 mg/kg morphine sulfate, day 11
  ongoing flinching (number of flinches of the injected limb): 3.6±0.5
Acute 30 mg/kg morphine sulfate, day 19
  ongoing flinching (number of flinches of the injected limb): 3.5±0.7
